Data: the supplement of paper PMC10849652
The list shows a part of the results.

Amino acid sequences for entries named in this document (tags omitted). A change or cut given only in a name is not applied to a line headed by its entry.
UniProt Q9HAB3: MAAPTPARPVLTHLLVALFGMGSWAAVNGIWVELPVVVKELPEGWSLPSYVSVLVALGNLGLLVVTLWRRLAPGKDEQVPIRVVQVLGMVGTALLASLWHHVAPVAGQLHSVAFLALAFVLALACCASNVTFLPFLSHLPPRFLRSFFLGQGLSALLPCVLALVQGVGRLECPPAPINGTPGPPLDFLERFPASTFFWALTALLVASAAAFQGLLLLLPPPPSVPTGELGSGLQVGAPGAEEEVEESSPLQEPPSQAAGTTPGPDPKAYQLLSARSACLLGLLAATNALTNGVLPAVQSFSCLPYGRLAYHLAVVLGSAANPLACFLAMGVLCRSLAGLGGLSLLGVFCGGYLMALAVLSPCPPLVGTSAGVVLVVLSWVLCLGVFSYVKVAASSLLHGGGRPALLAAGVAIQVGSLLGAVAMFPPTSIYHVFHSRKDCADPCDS
UniProt P30825: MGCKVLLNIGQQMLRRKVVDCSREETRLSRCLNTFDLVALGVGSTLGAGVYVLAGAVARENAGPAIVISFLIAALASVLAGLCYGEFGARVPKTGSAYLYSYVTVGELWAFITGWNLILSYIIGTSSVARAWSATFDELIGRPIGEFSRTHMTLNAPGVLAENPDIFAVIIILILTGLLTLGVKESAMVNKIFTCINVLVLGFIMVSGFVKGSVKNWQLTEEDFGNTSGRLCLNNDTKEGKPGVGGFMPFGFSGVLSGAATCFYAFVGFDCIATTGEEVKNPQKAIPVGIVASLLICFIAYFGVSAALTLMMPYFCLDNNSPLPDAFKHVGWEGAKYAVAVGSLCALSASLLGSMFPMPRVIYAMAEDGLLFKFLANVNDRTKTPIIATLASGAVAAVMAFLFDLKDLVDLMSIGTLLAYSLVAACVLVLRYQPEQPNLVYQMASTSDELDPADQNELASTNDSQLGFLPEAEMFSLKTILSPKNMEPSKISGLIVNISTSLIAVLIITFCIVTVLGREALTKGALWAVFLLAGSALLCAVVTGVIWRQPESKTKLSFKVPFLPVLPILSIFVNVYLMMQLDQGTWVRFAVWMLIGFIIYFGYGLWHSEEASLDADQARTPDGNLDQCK
UniProt Q92536: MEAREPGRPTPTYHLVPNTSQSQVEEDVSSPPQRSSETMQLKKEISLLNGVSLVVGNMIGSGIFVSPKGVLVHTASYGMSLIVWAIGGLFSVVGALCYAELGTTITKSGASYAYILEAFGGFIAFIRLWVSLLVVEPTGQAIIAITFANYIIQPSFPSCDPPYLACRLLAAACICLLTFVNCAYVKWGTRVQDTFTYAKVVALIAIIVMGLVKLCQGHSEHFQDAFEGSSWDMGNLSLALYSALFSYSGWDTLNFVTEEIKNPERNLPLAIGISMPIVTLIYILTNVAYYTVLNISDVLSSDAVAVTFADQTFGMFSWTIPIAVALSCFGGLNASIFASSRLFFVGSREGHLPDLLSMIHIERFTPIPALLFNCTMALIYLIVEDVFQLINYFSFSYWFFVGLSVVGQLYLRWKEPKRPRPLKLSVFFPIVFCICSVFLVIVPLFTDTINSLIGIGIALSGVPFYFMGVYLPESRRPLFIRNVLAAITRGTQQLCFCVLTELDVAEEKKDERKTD
UniProt Q9Y289: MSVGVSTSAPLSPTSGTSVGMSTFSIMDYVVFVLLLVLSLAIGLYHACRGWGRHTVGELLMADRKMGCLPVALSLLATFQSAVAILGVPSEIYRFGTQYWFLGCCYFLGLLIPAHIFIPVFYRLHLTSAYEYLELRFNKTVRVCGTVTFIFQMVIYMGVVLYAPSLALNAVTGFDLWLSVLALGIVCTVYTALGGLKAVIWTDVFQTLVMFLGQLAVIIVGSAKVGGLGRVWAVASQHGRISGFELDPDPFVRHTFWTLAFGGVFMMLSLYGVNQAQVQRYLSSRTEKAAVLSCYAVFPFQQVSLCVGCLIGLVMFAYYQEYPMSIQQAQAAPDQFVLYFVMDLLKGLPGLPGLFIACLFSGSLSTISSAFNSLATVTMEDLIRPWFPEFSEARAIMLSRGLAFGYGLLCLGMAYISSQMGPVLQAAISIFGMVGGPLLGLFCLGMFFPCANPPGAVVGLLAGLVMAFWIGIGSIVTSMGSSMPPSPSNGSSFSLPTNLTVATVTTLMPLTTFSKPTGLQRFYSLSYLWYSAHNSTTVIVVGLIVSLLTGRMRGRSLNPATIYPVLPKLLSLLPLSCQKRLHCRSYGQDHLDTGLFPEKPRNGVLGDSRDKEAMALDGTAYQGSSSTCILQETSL
UniProt Q96K37: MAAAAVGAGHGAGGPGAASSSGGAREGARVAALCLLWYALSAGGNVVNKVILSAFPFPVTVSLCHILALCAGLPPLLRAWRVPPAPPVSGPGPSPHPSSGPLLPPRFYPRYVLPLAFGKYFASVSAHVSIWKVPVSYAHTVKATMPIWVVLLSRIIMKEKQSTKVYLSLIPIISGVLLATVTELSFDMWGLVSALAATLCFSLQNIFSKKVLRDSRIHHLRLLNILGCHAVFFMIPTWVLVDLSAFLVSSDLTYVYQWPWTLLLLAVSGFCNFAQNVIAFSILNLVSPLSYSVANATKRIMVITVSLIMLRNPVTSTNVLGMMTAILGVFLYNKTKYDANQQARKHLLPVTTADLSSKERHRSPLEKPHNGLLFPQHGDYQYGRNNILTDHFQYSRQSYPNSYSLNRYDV
UniProt Q9H2D1: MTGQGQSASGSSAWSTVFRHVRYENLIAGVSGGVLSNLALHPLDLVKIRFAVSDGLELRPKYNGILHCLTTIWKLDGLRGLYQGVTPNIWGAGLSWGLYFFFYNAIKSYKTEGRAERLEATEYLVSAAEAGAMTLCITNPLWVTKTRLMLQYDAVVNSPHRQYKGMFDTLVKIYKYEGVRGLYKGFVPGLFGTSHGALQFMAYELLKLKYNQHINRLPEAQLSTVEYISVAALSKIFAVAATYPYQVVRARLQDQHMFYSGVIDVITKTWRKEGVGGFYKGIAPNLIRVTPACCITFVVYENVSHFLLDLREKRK
UniProt P14672: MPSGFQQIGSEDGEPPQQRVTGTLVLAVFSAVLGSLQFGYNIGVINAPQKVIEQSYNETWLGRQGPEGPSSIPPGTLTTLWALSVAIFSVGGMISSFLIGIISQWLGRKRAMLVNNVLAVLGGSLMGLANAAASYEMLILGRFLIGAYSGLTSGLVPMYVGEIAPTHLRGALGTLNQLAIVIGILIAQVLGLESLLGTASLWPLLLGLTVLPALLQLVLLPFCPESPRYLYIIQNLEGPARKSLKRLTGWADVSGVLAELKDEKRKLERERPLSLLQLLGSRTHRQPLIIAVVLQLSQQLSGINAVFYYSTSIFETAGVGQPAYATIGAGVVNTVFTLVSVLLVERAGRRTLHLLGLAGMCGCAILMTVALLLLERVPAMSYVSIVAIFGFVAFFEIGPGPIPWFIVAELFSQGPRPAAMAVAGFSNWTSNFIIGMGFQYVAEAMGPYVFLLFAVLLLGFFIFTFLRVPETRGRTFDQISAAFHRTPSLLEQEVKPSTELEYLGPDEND
UniProt Q6NXT4: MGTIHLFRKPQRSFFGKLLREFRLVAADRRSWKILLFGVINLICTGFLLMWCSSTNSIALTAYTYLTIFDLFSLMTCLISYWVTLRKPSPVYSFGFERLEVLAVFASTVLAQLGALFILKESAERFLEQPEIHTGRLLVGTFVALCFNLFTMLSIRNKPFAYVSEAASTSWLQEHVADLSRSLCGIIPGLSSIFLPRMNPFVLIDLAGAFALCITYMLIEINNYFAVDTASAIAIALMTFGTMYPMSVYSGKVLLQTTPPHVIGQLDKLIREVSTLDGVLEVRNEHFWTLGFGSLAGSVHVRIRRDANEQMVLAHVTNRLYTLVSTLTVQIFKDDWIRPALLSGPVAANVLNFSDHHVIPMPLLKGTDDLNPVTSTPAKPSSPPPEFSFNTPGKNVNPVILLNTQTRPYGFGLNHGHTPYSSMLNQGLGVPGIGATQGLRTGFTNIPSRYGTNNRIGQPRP
UniProt Q96AG3: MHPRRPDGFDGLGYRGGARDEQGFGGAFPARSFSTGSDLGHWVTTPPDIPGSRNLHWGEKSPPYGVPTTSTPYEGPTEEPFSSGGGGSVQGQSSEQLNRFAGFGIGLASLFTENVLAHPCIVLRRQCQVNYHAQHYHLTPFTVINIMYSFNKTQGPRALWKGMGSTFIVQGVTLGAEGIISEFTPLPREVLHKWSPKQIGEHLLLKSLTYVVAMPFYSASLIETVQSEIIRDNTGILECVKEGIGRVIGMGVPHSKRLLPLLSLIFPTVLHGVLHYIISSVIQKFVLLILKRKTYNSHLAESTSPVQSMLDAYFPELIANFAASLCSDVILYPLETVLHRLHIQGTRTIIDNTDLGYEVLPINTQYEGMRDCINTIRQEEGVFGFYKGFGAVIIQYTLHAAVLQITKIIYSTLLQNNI
UniProt O15431: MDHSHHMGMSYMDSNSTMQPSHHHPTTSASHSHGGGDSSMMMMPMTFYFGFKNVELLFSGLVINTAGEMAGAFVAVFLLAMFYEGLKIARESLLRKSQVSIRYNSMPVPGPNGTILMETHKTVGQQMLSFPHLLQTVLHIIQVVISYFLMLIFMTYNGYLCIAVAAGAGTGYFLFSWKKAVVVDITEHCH
UniProt Q92504: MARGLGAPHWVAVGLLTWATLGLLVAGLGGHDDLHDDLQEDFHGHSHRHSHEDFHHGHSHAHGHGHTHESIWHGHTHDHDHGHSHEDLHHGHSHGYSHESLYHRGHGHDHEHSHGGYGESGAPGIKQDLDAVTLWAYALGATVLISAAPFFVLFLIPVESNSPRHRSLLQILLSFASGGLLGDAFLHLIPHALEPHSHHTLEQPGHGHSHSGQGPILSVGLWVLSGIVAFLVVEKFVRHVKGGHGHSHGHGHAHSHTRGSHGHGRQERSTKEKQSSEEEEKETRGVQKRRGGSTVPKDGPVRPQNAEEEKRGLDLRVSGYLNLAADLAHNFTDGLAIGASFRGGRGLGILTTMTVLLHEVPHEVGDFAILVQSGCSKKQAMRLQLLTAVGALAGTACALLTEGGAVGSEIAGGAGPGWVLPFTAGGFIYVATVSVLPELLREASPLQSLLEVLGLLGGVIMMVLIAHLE
UniProt Q15043: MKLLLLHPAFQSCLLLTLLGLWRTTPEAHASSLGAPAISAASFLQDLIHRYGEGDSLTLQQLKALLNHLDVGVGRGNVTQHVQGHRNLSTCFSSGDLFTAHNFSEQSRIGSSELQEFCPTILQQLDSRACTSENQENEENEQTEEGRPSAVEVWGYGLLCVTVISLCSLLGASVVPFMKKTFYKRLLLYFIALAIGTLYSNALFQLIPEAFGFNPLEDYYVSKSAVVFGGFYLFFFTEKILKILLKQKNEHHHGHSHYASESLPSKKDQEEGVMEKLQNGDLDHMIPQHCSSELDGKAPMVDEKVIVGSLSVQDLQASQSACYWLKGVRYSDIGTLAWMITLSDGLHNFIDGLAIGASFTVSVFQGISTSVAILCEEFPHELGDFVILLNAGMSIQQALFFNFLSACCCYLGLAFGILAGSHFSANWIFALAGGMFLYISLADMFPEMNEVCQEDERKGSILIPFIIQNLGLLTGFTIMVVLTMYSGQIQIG
UniProt P53794: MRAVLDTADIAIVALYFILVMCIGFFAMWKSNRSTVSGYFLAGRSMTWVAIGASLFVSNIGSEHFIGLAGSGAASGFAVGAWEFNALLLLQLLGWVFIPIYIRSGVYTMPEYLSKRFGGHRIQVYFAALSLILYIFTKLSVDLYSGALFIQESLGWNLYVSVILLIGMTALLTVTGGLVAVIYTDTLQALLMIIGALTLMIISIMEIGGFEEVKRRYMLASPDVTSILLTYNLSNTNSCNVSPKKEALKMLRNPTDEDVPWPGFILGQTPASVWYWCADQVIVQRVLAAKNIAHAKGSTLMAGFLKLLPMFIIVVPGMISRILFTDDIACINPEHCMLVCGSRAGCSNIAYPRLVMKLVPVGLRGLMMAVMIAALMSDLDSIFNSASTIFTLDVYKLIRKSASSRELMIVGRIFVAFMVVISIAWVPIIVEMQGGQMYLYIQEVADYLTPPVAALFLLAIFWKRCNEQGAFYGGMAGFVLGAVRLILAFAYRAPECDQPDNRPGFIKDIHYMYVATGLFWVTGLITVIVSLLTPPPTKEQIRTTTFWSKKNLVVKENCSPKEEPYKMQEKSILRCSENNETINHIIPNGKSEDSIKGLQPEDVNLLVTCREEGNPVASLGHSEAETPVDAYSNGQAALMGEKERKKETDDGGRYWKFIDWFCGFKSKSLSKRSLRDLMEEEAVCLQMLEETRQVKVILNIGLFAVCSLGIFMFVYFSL
UniProt Q969S0: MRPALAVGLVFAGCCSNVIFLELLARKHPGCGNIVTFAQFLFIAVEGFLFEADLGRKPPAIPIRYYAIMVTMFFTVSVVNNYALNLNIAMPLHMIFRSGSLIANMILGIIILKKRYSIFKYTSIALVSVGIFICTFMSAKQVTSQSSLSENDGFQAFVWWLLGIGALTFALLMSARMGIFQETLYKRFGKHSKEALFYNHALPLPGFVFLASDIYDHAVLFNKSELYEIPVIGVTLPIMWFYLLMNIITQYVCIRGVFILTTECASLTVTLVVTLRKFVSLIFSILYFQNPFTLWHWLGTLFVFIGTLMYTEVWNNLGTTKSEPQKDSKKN

compound: Cc1cc(Nc2cc(CN3CCOCC3)c3nc(C)c(Cc4ccc(Cl)cc4F)n3n2)n[nH]1 [gandotinib]; assay: log2 fold change, soluble protein after heating vs DMSO (PISA); higher = thermal stabilisation; K562 lysate, 10 uM; active = over 0.2 and 3.5 SD of the protein, either way, in both replicates (recomputed)
How it was run: (§1)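 K562 pellets were dounce-homogenised in PBS pH 7.4 containing 1 mM MgCl2, and the crude extract, at 1 mg/mL protein, was exposed to 10 μM compound for 30 min. Aliquots were heated for 3 min across 48°C-58°C, pooled, brought to 0.5% NP-40 at 4°C and spun at 21,000xg for 90 min, with the supernatant taken as soluble protein. TMTpro 16plex LC-MS/MS with equalised channel sums quantified that protein. Values are log-two fold changes in thermal stability relative to solvent controls, taken from duplicates.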

Target	log2 fold change
SLC52A2 (UniProt Q9HAB3)	inactive: 0.064
SLC7A1 (UniProt P30825)	inactive: -0.031
SLC7A6 (UniProt Q92536)	inactive: 0.116
SLC39A1 (UniProt Q9NY26)	inactive: 0.179
SLC66A1 (UniProt Q6ZP29)	inactive: 0.067
SLC5A6 (UniProt Q9Y289)	inactive: 0.002
SLC25A30 (UniProt Q5SVS4)	inactive: 0.046
SLC35E1 (UniProt Q96K37)	inactive: -0.031
SLC25A32 (UniProt Q9H2D1)	inactive: 0.098
SLC9A8 isoform 2 (UniProt Q9Y2E8)	inactive: 0.035
SLC2A4 (UniProt P14672)	inactive: 0.031
SLC30A6 isoform 2 (UniProt Q6NXT4)	inactive: 0.048
SLC25A46 (UniProt Q96AG3)	inactive: -0.065
SLC31A1 (UniProt O15431)	inactive: 0.077
SLC39A7 (UniProt Q92504)	inactive: 0.147

compound: Cc1cc(Nc2cc(N3CCN(C)CC3)nc(Sc3ccc(NC(=O)C4CC4)cc3)n2)n[nH]1 [tozasertib]; assay: as above
How it was run: as §1

Target	log2 fold change
SLC4A1 (UniProt P02730)	inactive: -0.116
SLC45A4 isoform 3 (UniProt Q5BKX6)	inactive: 0.043
SLC35C1 (UniProt Q96A29)	inactive: 0.034
SLC39A14 (UniProt Q15043)	inactive: -0.003
SLC7A11 (UniProt Q9UPY5)	inactive: 0.024
SLC5A3 (UniProt P53794)	inactive: 0.004
SLC22A23 (UniProt A1A5C7)	inactive: -0.011
SLC25A33 (UniProt Q9BSK2)	inactive: -0.059
SLC25A44 (UniProt Q96H78)	inactive: -0.008
SLC25A26 (UniProt Q70HW3)	inactive: 0.107
SLC35B4 (UniProt Q969S0)	inactive: -0.173
SLC25A17 (UniProt O43808)	inactive: -0.069
SLC25A51 (UniProt Q9H1U9)	inactive: -0.069
SLC35F2 (UniProt Q8IXU6)	inactive: -0.023
SLC26A2 (UniProt P50443)	inactive: 0.005
SLC48A1 (UniProt Q6P1K1)	inactive: -0.1
SLC43A1 (UniProt O75387)	inactive: -0.004
SLC29A2 (UniProt Q14542)	inactive: 0.035
SLC9A6 isoform 2 (UniProt Q92581)	inactive: 0.036
SLC3A2 (UniProt F5GZS6)	inactive: -0.004
SLC52A2 (UniProt Q9HAB3)	inactive: 0.133
SLC7A1 (UniProt P30825)	inactive: 0.004
SLC7A6 (UniProt Q92536)	inactive: -0.114
SLC5A6 (UniProt Q9Y289)	inactive: 0.003
SLC35E1 (UniProt Q96K37)	inactive: -0.125
SLC25A32 (UniProt Q9H2D1)	inactive: -0.038
SLC2A4 (UniProt P14672)	inactive: -0.106
SLC30A6 isoform 2 (UniProt Q6NXT4)	inactive: 0.114
SLC25A46 (UniProt Q96AG3)	inactive: -0.032
SLC39A7 (UniProt Q92504)	inactive: 0.07

compound: Cc1ccc(-n2nc(C(C)(C)C)cc2NC(=O)Nc2ccc(OCCN3CCOCC3)c3ccccc23)cc1 [doramapimod]; assay: as above
How it was run: as §1

Target	log2 fold change
SLC4A1 (UniProt P02730)	inactive: 0.012
SLC45A4 isoform 3 (UniProt Q5BKX6)	inactive: 0.03
SLC35C1 (UniProt Q96A29)	inactive: -0.06
SLC39A14 (UniProt Q15043)	inactive: 0.015
SLC7A11 (UniProt Q9UPY5)	inactive: -0.01
SLC5A3 (UniProt P53794)	inactive: 0
SLC22A23 (UniProt A1A5C7)	inactive: -0.051
SLC25A33 (UniProt Q9BSK2)	inactive: -0.031
SLC25A44 (UniProt Q96H78)	inactive: -0.01
SLC25A26 (UniProt Q70HW3)	inactive: 0.049
SLC35B4 (UniProt Q969S0)	inactive: 0.064
SLC25A17 (UniProt O43808)	inactive: 0.007
SLC35B3 (UniProt Q9H1N7)	inactive: 0.17
SLC25A51 (UniProt Q9H1U9)	inactive: 0.052
SLC26A2 (UniProt P50443)	inactive: 0.04
SLC43A1 (UniProt O75387)	inactive: -0.031
SLC29A2 (UniProt Q14542)	inactive: -0.023
SLC22A5 isoform 3 (UniProt O76082)	inactive: -0.286

Target	log2 fold change
SLC9A6 isoform 2 (UniProt Q92581)	inactive: 0.089
SLC52A2 (UniProt Q9HAB3)	inactive: -0.018
SLC7A1 (UniProt P30825)	inactive: 0.017
SLC7A6 (UniProt Q92536)	inactive: 0.1
SLC39A1 (UniProt Q9NY26)	inactive: 0.102
SLC66A1 (UniProt Q6ZP29)	inactive: -0.175
SLC5A6 (UniProt Q9Y289)	inactive: -0.025
SLC25A30 (UniProt Q5SVS4)	inactive: -0.033
SLC35E1 (UniProt Q96K37)	inactive: 0.019
SLC25A32 (UniProt Q9H2D1)	inactive: -0.019
SLC9A8 isoform 2 (UniProt Q9Y2E8)	inactive: -0.046
SLC2A4 (UniProt P14672)	inactive: -0.02
SLC30A6 isoform 2 (UniProt Q6NXT4)	inactive: -0.058
SLC25A46 (UniProt Q96AG3)	inactive: -0.037
SLC31A1 (UniProt O15431)	inactive: 0
SLC39A7 (UniProt Q92504)	inactive: -0.011
SLC9A7 (UniProt Q96T83)	inactive: 0.141
